No constants are given. Whether binding was seen depends on the method and setting. Some binding calls cover weakened binding; strength is not graded here.

Protein sequences, listed by entry. Tags and fused reporters are not part of them. Lines headed by an entry give the natural chain unless they say otherwise; changes in a name come on top. Residues count along the entry.
UniProt P11226, residues 21-248: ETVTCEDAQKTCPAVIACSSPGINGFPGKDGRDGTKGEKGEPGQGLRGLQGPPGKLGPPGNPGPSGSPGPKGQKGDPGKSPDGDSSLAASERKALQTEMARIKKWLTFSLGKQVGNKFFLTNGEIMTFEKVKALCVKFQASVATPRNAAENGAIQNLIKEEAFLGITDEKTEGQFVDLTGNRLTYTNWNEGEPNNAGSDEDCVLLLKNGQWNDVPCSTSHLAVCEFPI
UniProt P13671, residues 22-934: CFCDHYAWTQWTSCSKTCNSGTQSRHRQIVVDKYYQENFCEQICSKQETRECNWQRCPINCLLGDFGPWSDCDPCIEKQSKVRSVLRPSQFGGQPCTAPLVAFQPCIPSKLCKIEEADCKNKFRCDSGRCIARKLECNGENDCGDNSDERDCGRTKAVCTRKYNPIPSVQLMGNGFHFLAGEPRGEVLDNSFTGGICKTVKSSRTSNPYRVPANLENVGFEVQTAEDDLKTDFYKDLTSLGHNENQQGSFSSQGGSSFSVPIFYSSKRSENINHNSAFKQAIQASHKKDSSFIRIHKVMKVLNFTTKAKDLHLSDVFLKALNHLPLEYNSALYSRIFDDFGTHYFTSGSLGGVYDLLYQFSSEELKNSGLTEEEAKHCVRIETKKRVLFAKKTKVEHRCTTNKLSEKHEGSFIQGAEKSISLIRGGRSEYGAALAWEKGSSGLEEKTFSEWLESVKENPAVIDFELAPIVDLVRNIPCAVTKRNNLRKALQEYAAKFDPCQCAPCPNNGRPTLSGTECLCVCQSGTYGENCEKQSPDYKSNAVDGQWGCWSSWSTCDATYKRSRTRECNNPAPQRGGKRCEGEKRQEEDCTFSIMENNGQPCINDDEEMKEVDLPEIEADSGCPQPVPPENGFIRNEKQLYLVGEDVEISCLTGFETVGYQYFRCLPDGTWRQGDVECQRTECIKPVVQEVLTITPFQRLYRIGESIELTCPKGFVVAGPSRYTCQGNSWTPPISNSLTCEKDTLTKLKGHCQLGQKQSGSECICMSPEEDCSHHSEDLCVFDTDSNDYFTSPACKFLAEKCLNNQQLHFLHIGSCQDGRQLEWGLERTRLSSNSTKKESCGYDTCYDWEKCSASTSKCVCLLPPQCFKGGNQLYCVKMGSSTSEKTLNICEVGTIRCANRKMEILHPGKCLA
UniProt P07357: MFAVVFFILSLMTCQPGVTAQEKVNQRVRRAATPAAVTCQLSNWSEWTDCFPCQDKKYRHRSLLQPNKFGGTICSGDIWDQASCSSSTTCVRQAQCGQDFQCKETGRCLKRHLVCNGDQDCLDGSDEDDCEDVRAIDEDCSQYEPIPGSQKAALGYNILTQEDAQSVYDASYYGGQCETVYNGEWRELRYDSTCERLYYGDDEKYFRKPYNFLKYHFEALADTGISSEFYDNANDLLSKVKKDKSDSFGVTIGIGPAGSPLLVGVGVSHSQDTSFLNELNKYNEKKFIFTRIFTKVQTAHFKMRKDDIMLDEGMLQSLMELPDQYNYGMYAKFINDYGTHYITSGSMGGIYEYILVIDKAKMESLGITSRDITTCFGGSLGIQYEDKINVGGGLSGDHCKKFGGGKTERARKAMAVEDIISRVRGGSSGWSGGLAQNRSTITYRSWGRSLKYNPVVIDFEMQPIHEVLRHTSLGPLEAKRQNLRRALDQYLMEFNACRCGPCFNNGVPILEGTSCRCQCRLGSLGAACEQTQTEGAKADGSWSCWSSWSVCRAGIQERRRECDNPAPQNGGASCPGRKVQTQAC
UniProt P07358: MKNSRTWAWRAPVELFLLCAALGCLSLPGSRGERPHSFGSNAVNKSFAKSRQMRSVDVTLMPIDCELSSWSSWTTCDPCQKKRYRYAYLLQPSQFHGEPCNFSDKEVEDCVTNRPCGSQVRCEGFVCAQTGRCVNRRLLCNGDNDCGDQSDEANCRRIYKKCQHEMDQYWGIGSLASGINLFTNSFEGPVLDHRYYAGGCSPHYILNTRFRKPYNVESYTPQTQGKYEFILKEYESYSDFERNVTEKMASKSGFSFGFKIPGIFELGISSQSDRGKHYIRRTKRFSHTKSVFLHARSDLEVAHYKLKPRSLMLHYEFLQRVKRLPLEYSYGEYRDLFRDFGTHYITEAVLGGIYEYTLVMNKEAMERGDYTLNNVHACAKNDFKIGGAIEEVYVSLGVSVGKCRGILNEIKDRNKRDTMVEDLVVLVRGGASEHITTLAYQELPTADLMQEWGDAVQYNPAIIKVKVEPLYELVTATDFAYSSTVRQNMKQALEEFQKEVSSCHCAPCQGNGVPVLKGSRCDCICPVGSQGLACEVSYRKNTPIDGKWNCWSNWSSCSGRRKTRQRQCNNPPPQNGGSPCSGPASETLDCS
UniProt P07360: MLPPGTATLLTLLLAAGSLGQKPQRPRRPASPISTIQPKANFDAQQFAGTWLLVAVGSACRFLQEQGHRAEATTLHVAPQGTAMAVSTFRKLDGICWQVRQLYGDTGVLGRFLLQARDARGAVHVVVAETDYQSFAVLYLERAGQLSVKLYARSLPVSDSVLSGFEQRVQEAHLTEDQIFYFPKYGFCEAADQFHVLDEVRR
UniProt P27918, residues 28-469: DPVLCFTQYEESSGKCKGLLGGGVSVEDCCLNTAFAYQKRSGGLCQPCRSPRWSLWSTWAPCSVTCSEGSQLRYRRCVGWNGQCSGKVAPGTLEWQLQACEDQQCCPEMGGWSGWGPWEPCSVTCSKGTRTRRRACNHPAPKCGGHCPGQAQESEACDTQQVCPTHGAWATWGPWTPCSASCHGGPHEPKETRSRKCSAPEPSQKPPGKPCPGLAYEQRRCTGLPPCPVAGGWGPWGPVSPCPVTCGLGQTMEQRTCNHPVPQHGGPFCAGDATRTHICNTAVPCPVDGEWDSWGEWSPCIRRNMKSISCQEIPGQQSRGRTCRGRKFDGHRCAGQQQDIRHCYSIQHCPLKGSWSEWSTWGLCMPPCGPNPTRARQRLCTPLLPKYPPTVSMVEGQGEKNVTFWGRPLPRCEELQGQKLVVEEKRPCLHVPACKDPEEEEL

This assay addresses T1, scabies mite serpin SMSB4, wild type (Sarcoptes scabiei).
T1 sequence: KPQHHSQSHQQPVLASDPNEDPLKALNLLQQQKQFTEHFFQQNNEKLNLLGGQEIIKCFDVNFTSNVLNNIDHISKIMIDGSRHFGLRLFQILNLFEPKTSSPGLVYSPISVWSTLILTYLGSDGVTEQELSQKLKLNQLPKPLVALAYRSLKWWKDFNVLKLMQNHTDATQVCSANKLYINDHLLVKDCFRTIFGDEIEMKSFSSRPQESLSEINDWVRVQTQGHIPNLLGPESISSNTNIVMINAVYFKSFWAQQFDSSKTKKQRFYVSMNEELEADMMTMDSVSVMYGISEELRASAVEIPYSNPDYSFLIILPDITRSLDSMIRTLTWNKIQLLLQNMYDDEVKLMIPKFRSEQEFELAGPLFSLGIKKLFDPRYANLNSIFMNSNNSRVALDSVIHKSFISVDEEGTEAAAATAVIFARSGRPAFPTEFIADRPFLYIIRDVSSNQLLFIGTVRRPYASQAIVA
Description: ELISA; SMSB3 or SMSB4 coated at 10 µg/ml; serial dilutions of normal human serum (0-100%) for 10, 20, 40 or 60 min at 37°C; bound complement factors detected with specific antibodies; only the target purified.
Take human MBL (from UniProt P11226 21-248): the binding entry is listed as “binds”.
“human complement C6 (from UniProt P13671 22-934)”: the binding result was “binds”.
In the case of “human complement C8 (from UniProt P07357;P07358;P07360) (complex)”, the binding result was “binds”.
For “human properdin (from UniProt P27918 28-469)”, the binding entry was “binds”.

These data come from paper PMC3394726.
